# [ ]: non-standard residue; d: D form. Cha = N[C@@H](CC1CCCCC1)C(=O)O
# Assay: general procedure: Fmoc solid-phase peptide synthesis; MBHA rink amide resin; TBTU/HOBt/DIPEA
# Conditions: whole synthesis, 220 nm
substance,measurement,value
Ac-IV[Cha]K-NH2,final HPLC purity,97.50%
"Ac-Ile-Val-Phe-Lys-NH2 (IVFK; N-acetyl, C-amide)",final HPLC purity,96.64%

# From patent US20230382948A1 (KING ABDULLAH UNIVERSITY OF SCIENCE AND TECHNOLOGY, priority 2020, published 2023)
